Assay results: patent publication US20130231458A1, “POLYPEPTIDE FOR PREVENTING AND TREATING CELL HYPERPLASIA” (priority 2011, published 2013)
At least one peptide structure holds a part that was inferred or is arguable (an end, a ring closure or a residue). Where a SMILES comes first, the peptide text is derived from it.

How the values were obtained:
lung cancer cells = test: Xenograft model of lung cancer in nude mice, tumor volume; assay type: in vivo, nude mice (NU/NU)
Protocol: The polypeptide of the present invention is preventively injected into the rear parts of the necks of four nude mice (nude mice—NU/NU) for a week (5 times per week at a dose of 50 mg/Kg). Next, 1×10^6 lung cancer cells are injected into the hypodermic tissue of the right side of the abdomen of each nude mouse on Day 1. The abovementioned four nude mice function as the medicine test group. Next, the polypeptide is delivered to each nude mouse of the medicine test group at a dose of 50 mg/Kg 5 times per week from Day 1 to Day 43. Meanwhile, the weight and cancer size of each nude mouse of the medicine test group is recorded. […] Normal saline having a pH of 7.2-7.4 is subcutaneously injected into the four nude mice of the negative control group for a week (5 times per week). Next, 1×10^6 lung cancer cells are injected into the hypodermic tissue of the right side of the abdomen of each nude mouse of the negative control group on Day 1. Next, normal saline is delivered to each nude mouse of the negative control group 5 times per week from Day 1 to Day 43. Meanwhile, the weight and cancer size of each nude mouse of the negative control group is recorded. […] 1×10^6 lung cancer cells are injected into the hypodermic tissue of the right side of the abdomen of each nude mouse of the positive control group on Day 1. Next, a small-molecule anti-cancer drug Doxorubicin is intravenously injected into a region near the abdomen of each nude mouse of the positive control group once per week at a dose of 5 mg/Kg from Day 1 to Day 43 (refer to F Pastorino et. al., Clin. Cancer Res. 14(22): 7320-7329, 2008). Meanwhile, the weight and cancer size of each nude mouse of the positive control group is recorded. Different from the abovementioned two groups, medicine is not applied to the positive control group before Day 1. […] The mice of the three groups are dissected for examining and recording the weight of the tumor tissue on Day 43.

[1] = tested on: lung cancer (NCI-H460) agglomerates; test: In-vitro lung cancer spheroid (agglomerate) formation, hanging-drop suspension; assay type: cell-based; settings: NCI-H460, 500 cells per 20 μl droplet

CC[C@H](C)[C@H](NC(=O)[C@H](CCCCN)NC(=O)[C@H](CCCCN)NC(=O)[C@H](Cc1ccccc1)NC(=O)[C@@H](NC(=O)[C@H](CCCCN)NC(=O)[C@H](Cc1c[nH]c2ccccc12)NC(=O)[C@H](CCCCN)NC(=O)[C@@H]1CCCN1C(=O)CNC(=O)[C@H](C)NC(=O)[C@H](CCCCN)NC(=O)[C@H](CCC(=O)O)NC(=O)[C@@H](NC(=O)[C@H](CCCCN)NC(=O)[C@H](CCCCN)NC(=O)[C@H](Cc1ccccc1)NC(=O)[C@@H](NC(=O)[C@H](CCCCN)NC(=O)[C@H](Cc1c[nH]c2ccccc12)NC(=O)[C@H](CCCCN)NC(=O)[C@H](CCCCN)NC(=O)[C@H](CCC(=O)O)NC(=O)[C@@H](NC(=O)[C@H](CCCCN)NC(=O)[C@H](CCCCN)NC(=O)[C@H](Cc1ccccc1)NC(=O)[C@@H](NC(=O)[C@H](CCCCN)NC(=O)[C@H](Cc1c[nH]c2ccccc12)NC(=O)[C@@H](N)CCCCN)C(C)C)[C@@H](C)CC)C(C)C)[C@@H](C)CC)C(C)C)C(=O)N[C@@H](CCC(=O)O)C(=O)N[C@@H](CCCCN)C(=O)O [polypeptide] (H-KWKVFKKIEKKWKVFKKIEKAGPKWKVFKKIEK-OH)
Tumor Volumes of Nude Mice (lung cancer cells; D22, polypeptide 50 mg/Kg s.c. 5 times per week (plus one week before D1), Dox 5 mg/Kg i.v. once per week): 12.9 mm^3 | Tumor Volumes of Nude Mice (lung cancer cells; D29, same dosing): 70.6 mm^3 | Tumor Volumes of Nude Mice (lung cancer cells; D33, same dosing): 137.3 mm^3 | Tumor Volumes of Nude Mice (lung cancer cells; D36, same dosing): 166.8 mm^3 | Tumor Volumes of Nude Mice (lung cancer cells; D40, same dosing): 279.3 mm^3 | Tumor Volumes of Nude Mice (lung cancer cells; D43, same dosing): 451.2 mm^3 | ratio of the average tumor volumes of treated group and negative control group (saline) (lung cancer cells; at best, Day 36): 13.89% | ratio of the average tumor volumes of treated group and negative control group (saline) (lung cancer cells; end of the experiment (Day 43)): 19.30% | formation of lung cancer agglomerates ([1]; polypeptide applied to the cancer cells before suspension): do not form agglomerates | formation of lung cancer agglomerates ([1]; polypeptide applied to the cancer cells during growth): smaller agglomerates
